Measured values published in PubChem BioAssay AID180 (DTP/NCI, 2004).
The list shows only some results of the screen, not a fair sample: it gathers tests that were run many times, whatever their T/C, doses with no T/C, and many T/C values between a quarter and a half above the control. Other doses and runs of a compound stand elsewhere. T/C is the treated group as % of the vehicle group. Schedules are NCI's codes, taken here to give the interval after Q, in days (D) or hours (H), and the number of doses after X. Some T/C values are followed by the survivors on the day toxicity was checked, most often the fifth; where none is given, no animal had died by that day. Some doses have a count of surviving animals in place of a T/C: the source files T/C as zero there, which appears to mark a toxic dose or a test without result, not a measured value. Survivors were counted at the toxicity check, usually on the fifth day, unless a day is given; later deaths do not show. Some entries hold several experiments; the values are given in rising order. Some schedule codes hold Z or #, which are not explained here.

Tested on: BDF1 mice, Adenocarcinoma 755 s.c., tumor weight T/C
Assay: NCI In Vivo Anticancer Drug Screen. Data for tumor model Adenocarcinoma 755 (subcutaneous) in B6D2F1 (BDF1) mice
Conditions: T/C endpoint: mean tumor weight, higher T/C = larger tumour; for T/C: evaluated on day 12
Protocol: The antitumor activity of compounds was measured in mice bearing transplantable tumors. Survival or tumor size were measured and the results are expressed as the measurement made in the treated group (T) divided by the measurement made in the vehicle treated control group (C). The tumor model used in this assay is Adenocarcinoma 755 (subcutaneous) in B6D2F1 (BDF1) mice

[1] = dose: 60.0 mg/kg/injection, schedule: Q01DX011 (ip), vehicle: carboxymethylcellulose (CMC)
[2] = dose: 200.0 mg/kg/injection, schedule: Q01DX011 (ip), vehicle: carboxymethylcellulose (CMC)

Compound: C[C@@H]1C[C@@H]([C@H](O)CC2CC(=O)NC(=O)C2)C(=O)[C@@H](C)C1
- survivor count (dose: 4.31 mg/kg/injection, schedule: Q01DX011 (ip), vehicle: carboxymethylcellulose (CMC)): 6 of 10
- T/C (dose: 10.0 mg/kg/injection, schedule: Q01DX006 (iv), vehicle: alkali diluted with saline): 135 % of control [9 of 10 alive]
- survivor count (dose: 63.0 mg/kg/injection, schedule: Q01DX011 (ip), vehicle: carboxymethylcellulose (CMC)): 3 of 10
- survivor count (dose: 76.0 mg/kg/injection, schedule: Q01DX011 (ip), vehicle: carboxymethylcellulose (CMC)): 4 of 10
- T/C (dose: 80.0 mg/kg/injection, schedule: Q01DX011 (ip), vehicle: alkali diluted with saline): 140 % of control [9 of 10 alive]
- survivor count (dose: 80.0 mg/kg/injection, schedule: Q01DX011 (oral), vehicle: alkali diluted with saline): 0 of 10 and 3 of 10
- survivor count (dose: 80.0 mg/kg/injection, schedule: Q01DX011 (sc), vehicle: steroid suspending solution): 5 of 10
- survivor count (dose: 80.0 mg/kg/injection, schedule: Q#A X022 (ip), vehicle: alkali diluted with saline): 0 of 10
- survivor count (dose: 160.0 mg/kg/injection, schedule: Q01DX011 (im), vehicle: alkali diluted with saline): 0 of 10
- survivor count (dose: 160.0 mg/kg/injection, schedule: Q01DX011 (ip), vehicle: alkali diluted with saline): 0 of 10
- survivor count (dose: 160.0 mg/kg/injection, schedule: Q01DX011 (oral), vehicle: alkali diluted with saline): 0 of 10
- survivor count (dose: 160.0 mg/kg/injection, schedule: Q#A X022 (ip), vehicle: alkali diluted with saline): 0 of 10
- survivor count (dose: 200.0 mg/kg/injection, schedule: Q01DX001 (ip), vehicle: alkali diluted with saline): 5 of 10
- survivor count (dose: 240.0 mg/kg/injection, schedule: Q03DX004 (ip), vehicle: alkali diluted with saline): 0 of 10
- survivor count (dose: 320.0 mg/kg/injection, schedule: Q01DX006 (iv), vehicle: alkali diluted with saline): 0 of 10
- survivor count (dose: 320.0 mg/kg/injection, schedule: Q01DX011 (im), vehicle: alkali diluted with saline): 0 of 10
- survivor count (dose: 320.0 mg/kg/injection, schedule: Q01DX011 (ip), vehicle: alkali diluted with saline): 0 of 10
- survivor count (dose: 320.0 mg/kg/injection, schedule: Q01DX011 (oral), vehicle: alkali diluted with saline): 0 of 10
- survivor count (dose: 400.0 mg/kg/injection, schedule: Q01DX001 (ip), vehicle: alkali diluted with saline): 0 of 10
- survivor count (dose: 800.0 mg/kg/injection, schedule: Q01DX001 (ip), vehicle: alkali diluted with saline): 0 of 10
- survivor count (dose: 1600.0 mg/kg/injection, schedule: Q01DX001 (ip), vehicle: alkali diluted with saline): 1 of 10

Compound: CC(=O)OCC1OC(n2cnc3c(=S)nc(N)[nH]c32)C(OC(C)=O)C1OC(C)=O (centres undefined)
- survivor count (dose: 30.0 mg/kg/injection, schedule: Q01DX011 (ip), vehicle: carboxymethylcellulose (CMC)): 0 of 10
- survivor count (dose: 50.0 mg/kg/injection, schedule: Q01DX011 (ip), vehicle: other): 0 of 10
- survivor count [1]: 0 of 10
- survivor count (dose: 100.0 mg/kg/injection, schedule: Q01DX011 (ip), vehicle: other): 0 of 10
- survivor count (dose: 120.0 mg/kg/injection, schedule: Q01DX011 (ip), vehicle: carboxymethylcellulose (CMC)): 0 of 10

Compound: CC(=O)OCC1OC(n2cnc3c(N)ncnc32)C(OC(C)=O)C1OC(C)=O (centres undefined)
- T/C [1]: 125 % of control [9 of 10 alive]

Compound: CC(CNC(=O)CCBr)CNC(=O)CCBr
- survivor count (dose: 225.0 mg/kg/injection, schedule: Q01DX011 (ip), vehicle: carboxymethylcellulose (CMC)): 6 of 10

Compound: O=C1Nc2ccccc2SC1c1ccccc1Cl (centres undefined)
- survivor count (dose: 75.0 mg/kg/injection, schedule: Q01DX011 (ip), vehicle: methylcellulose (MC)): 4 of 10
- survivor count (dose: 150.0 mg/kg/injection, schedule: Q01DX011 (ip), vehicle: methylcellulose (MC)): 4 of 10
- survivor count (dose: 300.0 mg/kg/injection, schedule: Q01DX011 (ip), vehicle: methylcellulose (MC)): 2 of 10 and 7 of 12
- survivor count (dose: 600.0 mg/kg/injection, schedule: Q01DX011 (ip), vehicle: methylcellulose (MC)): 2 of 12

Compound: CC(=O)OCC(=O)[C@@]1(O)CC[C@H]2[C@@H]3CCC4=CC(=O)CC[C@]4(C)[C@H]3[C@@H](O)C[C@@]21C
- T/C (dose: 1.87 mg/kg/injection, schedule: Q01DX011 (sc), vehicle: steroid suspending solution): 127 % of control
- survivor count (dose: 40.0 mg/kg/injection, schedule: Q01DX006 (iv), vehicle: steroid suspending solution): 2 of 10
- survivor count (dose: 80.0 mg/kg/injection, schedule: Q01DX006 (iv), vehicle: steroid suspending solution): 6 of 10
- survivor count (dose: 140.0 mg/kg/injection, schedule: Q07DX002 (sc), vehicle: steroid suspending solution): 6 of 10
- survivor count (dose: 250.0 mg/kg/injection, schedule: Q01DX011 (sc), vehicle: steroid suspending solution): 5 of 10
- survivor count (dose: 320.0 mg/kg/injection, schedule: Q01DX006 (iv), vehicle: steroid suspending solution): 0 of 10
- survivor count (dose: 560.0 mg/kg/injection, schedule: Q07DX002 (sc), vehicle: steroid suspending solution): 6 of 10

Compound: c1nc(SC2=NCCN2)c2[nH]cnc2n1
- survivor count (dose: 50.0 mg/kg/injection, schedule: Q01DX011 (ip), vehicle: saline): 3 of 10

Compound: NC(CCSCc1ccc(N(CCCl)CCCl)cc1)C(=O)O (centres undefined)
- survivor count (dose: 36.0 mg/kg/injection, schedule: Q01DX011 (ip), vehicle: saline): 5 of 10
- survivor count (dose: 81.0 mg/kg/injection, schedule: Q01DX011 (ip), vehicle: saline): 3 of 10

Compound: CCCCC(CCCC)(C(=O)OCC)C(=O)OCC
- survivor count (dose: 325.0 mg/kg/injection, schedule: Q01DX011 (ip), vehicle: methylcellulose (MC)): 6 of 10

Compound: CCN(CC)CCCC(C)Nc1c2ccc(Cl)cc2nc2ccc(OC)cc12 (centres undefined)
- survivor count [2]: 0 of 10
- survivor count (dose: 400.0 mg/kg/injection, schedule: Q01DX011 (ip), vehicle: carboxymethylcellulose (CMC)): 0 of 10

Compound: CC1(O)CC([CH2][Hg][I])OC([CH2][Hg][I])C1 (centres undefined)
- survivor count (dose: 100.0 mg/kg/injection, schedule: Q01DX011 (ip), vehicle: carboxymethylcellulose (CMC)): 4 of 10
- survivor count [2]: 0 of 10

Compound: C/C(=N\NC(=O)c1ccncc1)c1cccc(Cl)c1
- survivor count (dose: 60.0 mg/kg/injection, schedule: Q01DX011 (ip), vehicle: methylcellulose (MC)): 5 of 10
- survivor count (dose: 120.0 mg/kg/injection, schedule: Q01DX011 (ip), vehicle: methylcellulose (MC)): 2 of 10

Compound: Cc1cnc(SCc2ccccc2Cl)nc1N(C)C
- survivor count (dose: 31.0 mg/kg/injection, schedule: Q01DX011 (ip), vehicle: methylcellulose (MC)): 6 of 10
- survivor count (dose: 62.0 mg/kg/injection, schedule: Q01DX011 (ip), vehicle: methylcellulose (MC)): 6 of 10
- survivor count (dose: 250.0 mg/kg/injection, schedule: Q01DX011 (ip), vehicle: methylcellulose (MC)): 4 of 10

Compound: Cc1ccccc1CNc1ncnc2[nH]ncc12
- survivor count (dose: 150.0 mg/kg/injection, schedule: Q01DX011 (ip), vehicle: saline): 3 of 10

Compound: Nc1nc(N)c2cnnn2n1
- survivor count (dose: 225.0 mg/kg/injection, schedule: Q01DX011 (ip), vehicle: saline): 1 of 10

Compound: CC(C)Cn1cnc2c(SCc3ccc(Cl)cc3Cl)nc(N)nc21
- T/C (dose: 4.5 mg/kg/injection, schedule: Q01DX011 (ip), vehicle: other): 131 % of control [9 of 10 alive]

Compound: COc1cc2c3c(c4cc(OC)c(OC)cc4c2cc1OC)CN1CCC[C@H]1C3
- survivor count (dose: 20.0 mg/kg/injection, schedule: Q01DX006 (ip), vehicle: water): 2 of 6

Compound: CC(C)CNS(=O)(=O)c1ncnc2nc[nH]c12
- survivor count (dose: 75.0 mg/kg/injection, schedule: Q01DX011 (ip), vehicle: carboxymethylcellulose (CMC)): 3 of 10
- survivor count (dose: 150.0 mg/kg/injection, schedule: Q01DX011 (ip), vehicle: carboxymethylcellulose (CMC)): 0 of 10
- survivor count (dose: 150.0 mg/kg/injection, schedule: Q01DX011 (ip), vehicle: other): 6 of 10
